The target of assay [1] is T1, MDH1-SmBiT-cMyc (mitochondrial malate dehydrogenase MDH1 fused at its C-terminus to the small NanoBiT subunit) (S. cerevisiae) (UniProt P17505).
T1 sequence: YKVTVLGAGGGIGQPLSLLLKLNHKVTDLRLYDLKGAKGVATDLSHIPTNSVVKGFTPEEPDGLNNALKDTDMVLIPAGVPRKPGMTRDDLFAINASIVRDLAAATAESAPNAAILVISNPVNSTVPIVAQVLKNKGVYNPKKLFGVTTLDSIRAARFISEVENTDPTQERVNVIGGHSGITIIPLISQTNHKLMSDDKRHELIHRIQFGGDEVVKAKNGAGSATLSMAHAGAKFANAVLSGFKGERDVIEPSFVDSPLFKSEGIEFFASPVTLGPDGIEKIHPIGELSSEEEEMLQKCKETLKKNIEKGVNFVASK
Description: co-IP; protein extracts of the Split-luc line grown in SD-Raff, 1.5 and 2.5 hr after 2% glucose application; MDH1 precipitated with anti-cMyc agarose, co-precipitated CIT1 detected with anti-HA antibody after SDS-PAGE.

The target of assay [2] is T1, MDH1-SmBiT-cMyc (mitochondrial malate dehydrogenase MDH1 fused at its C-terminus to the small NanoBiT subunit) (S. cerevisiae). Description: split reporter; NanoBiT split luciferase in living yeast cells (MDH1/CIT1-BiT strain), furimazine substrate, microplate reader, 28°C; cells grown in SD-Raff or SD-Acet; treatments of SD-Raff-grown cells: glucose, fructose, sucrose, galactose, raffinose, phosphate, acetate, ethanol, arsenite, AOA, malonate, cyanide, antimycin, oligomycin, CCCP.

The target of assay [3] is T2, recombinant MDH1 (without the mitochondrial targeting signal, C-terminal 6x His tag), fluorescently labeled (S. cerevisiae) (UniProt P17505).
T2 sequence (chain, fluorescent label (Protein Labeling Kit RED-NHS 2nd Generation)): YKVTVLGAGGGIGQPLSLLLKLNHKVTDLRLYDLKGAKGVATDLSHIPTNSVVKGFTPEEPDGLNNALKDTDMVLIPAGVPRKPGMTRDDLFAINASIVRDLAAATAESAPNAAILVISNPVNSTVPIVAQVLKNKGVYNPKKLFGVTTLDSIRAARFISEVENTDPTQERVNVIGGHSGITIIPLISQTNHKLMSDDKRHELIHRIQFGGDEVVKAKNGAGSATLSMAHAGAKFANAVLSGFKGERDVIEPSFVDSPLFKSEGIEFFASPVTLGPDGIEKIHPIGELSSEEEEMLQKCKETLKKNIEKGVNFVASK
Briefly: MST; fluorescently labeled MDH1 as the target, CIT1 as the ligand; Monolith NT.115, room temperature; MST buffer (50 mM Tris-HCl pH 8, 150 mM NaCl, 10 mM MgCl2, 5 mM DTT, 0.05% Tween-20) without or with 10 mM malate, fumarate, α-ketoglutarate, succinate, aspartate or glutamate, or 1.25, 2.5 or 5 mM ATP; both purified.

No constants are given. Whether binding was seen depends on the method and setting. For part of these data: In cells and extracts the contact can be indirect. Some entries that bind do so weakly or less than the wild type. Tags and fused reporters may be left off the sequences shown.

B1: CIT1-LgBiT-HA (mitochondrial citrate synthase CIT1 fused at its C-terminus to the large NanoBiT subunit) (enzyme, UniProt P00890 38-479)
chain: SSASEQTLKERFAEIIPAKAEEIKKFKKEHGKTVIGEVLLEQAYGGMRGIKGLVWEGSVLDPEEGIRFRGRTIPEIQRELPKAEGSTEPLPEALFWLLLTGEIPTDAQVKALSADLAARSEIPEHVIQLLDSLPKDLHPMAQFSIAVTALESESKFAKAYAQGVSKKEYWSYTFEDSLDLLGKLPVIASKIYRNVFKDGKITSTDPNADYGKNLAQLLGYENKDFIDLMRLYLTIHSDHEGGNVSAHTTHLVGSALSSPYLSLAAGLNGLAGPLHGRANQEVLEWLFKLREEVKGDYSKETIEKYLWDTLNAGRVVPGYGHAVLRKTDPRYTAQREFALKHFPDYELFKLVSTIYEVAPGVLTKHGKTKNPWPNVDSHSGVLLQYYGLTEASFYTVLFGVARAIGVLPQLIIDRAVGAPIERPKSFSTEKYKELVKKIESKN
In the case of B1, the binding entry in assay [1] and in assay [2] was “binds” throughout.

B2: recombinant CIT1 (without the mitochondrial targeting signal, C-terminal 6x His tag) (enzyme)
chain: SSASEQTLKERFAEIIPAKAEEIKKFKKEHGKTVIGEVLLEQAYGGMRGIKGLVWEGSVLDPEEGIRFRGRTIPEIQRELPKAEGSTEPLPEALFWLLLTGEIPTDAQVKALSADLAARSEIPEHVIQLLDSLPKDLHPMAQFSIAVTALESESKFAKAYAQGVSKKEYWSYTFEDSLDLLGKLPVIASKIYRNVFKDGKITSTDPNADYGKNLAQLLGYENKDFIDLMRLYLTIHSDHEGGNVSAHTTHLVGSALSSPYLSLAAGLNGLAGPLHGRANQEVLEWLFKLREEVKGDYSKETIEKYLWDTLNAGRVVPGYGHAVLRKTDPRYTAQREFALKHFPDYELFKLVSTIYEVAPGVLTKHGKTKNPWPNVDSHSGVLLQYYGLTEASFYTVLFGVARAIGVLPQLIIDRAVGAPIERPKSFSTEKYKELVKKIESKN
Take B2: the binding entry in assay [3] was “binds”.

For the origin of these results see paper PMC13345634, “Dynamic assembly of malate dehydrogenase–citrate synthase multienzyme complex in the mitochondria” (eLife, 2026).
